The labels stand for the following.
B1: 2B12 murine-derived anti-PCSK9 monoclonal antibody (antibody, V domains shown)
VH: DVQLQESGPGLVKPSQSLSLTCSVTGFSITSDYAWNWIRQFPGNKLEWMGYISYSGTTNYNPSLKSRISITRDTSKNQFFLHLNSVITEDTATYYCARREGHYSWFPYWGQGTLVTVSA
VL: DIVLTQSPASLAVSLGQRATISCRASESVEYYGTSLMHWYQHKPGQTPKLLIYSGSNVESGVPARFSGSGSGTDFSLNIHPVEEDDIAMYFCQQSREVPSTFGGGTKLEIK
B2: 3G12 murine-derived anti-PCSK9 monoclonal antibody (antibody, V domains shown)
VH: QVQLKQSGPSLLQPSQSLSITCTVSGFSLTSYGIHWVRQSPGKGLEWLGVIWRGGITDYNAPFMSRLNITKDNSKNQVFFKMNSLQVDDTAIYYCANHRDWGQGTLVTVSA
VL: DIQMTQSPSSLSASLGGKVTITCKASQDINKYIDWYQHKPGKSPRLLIHYASTLQPGIPSRFSGSGSGRDYSFSISNLEPEDIATYYCLQYDDLWTFGGGTKLEIK
B3: 1A5 murine-derived anti-PCSK9 monoclonal antibody (antibody, V domains shown)
VH: QVQLKQSGPSLVQPSQSLSITCTVSGFSLTSYGVHWVRQSPGKGLEWLGVIWRGGSTDYNAAFMSRLSITKDNSKSQVFFKMNSLQADDTAIYYCANHRDWGQGTLVTVSA
VL: DIQMTQSPSSLSASLGDKVTITCKASQDINKYIDWYQHKPGKGPRLLIHYTSTLQPGIPSRFSGSGSGRDYSFSISNLEPEDIATYYCVQYDDLWTFGGGTKLEIK

Chains of the proteins cited; added tags and fusions are not shown. Residues count along the entry.
UniProt Q80W65, residues 35-694: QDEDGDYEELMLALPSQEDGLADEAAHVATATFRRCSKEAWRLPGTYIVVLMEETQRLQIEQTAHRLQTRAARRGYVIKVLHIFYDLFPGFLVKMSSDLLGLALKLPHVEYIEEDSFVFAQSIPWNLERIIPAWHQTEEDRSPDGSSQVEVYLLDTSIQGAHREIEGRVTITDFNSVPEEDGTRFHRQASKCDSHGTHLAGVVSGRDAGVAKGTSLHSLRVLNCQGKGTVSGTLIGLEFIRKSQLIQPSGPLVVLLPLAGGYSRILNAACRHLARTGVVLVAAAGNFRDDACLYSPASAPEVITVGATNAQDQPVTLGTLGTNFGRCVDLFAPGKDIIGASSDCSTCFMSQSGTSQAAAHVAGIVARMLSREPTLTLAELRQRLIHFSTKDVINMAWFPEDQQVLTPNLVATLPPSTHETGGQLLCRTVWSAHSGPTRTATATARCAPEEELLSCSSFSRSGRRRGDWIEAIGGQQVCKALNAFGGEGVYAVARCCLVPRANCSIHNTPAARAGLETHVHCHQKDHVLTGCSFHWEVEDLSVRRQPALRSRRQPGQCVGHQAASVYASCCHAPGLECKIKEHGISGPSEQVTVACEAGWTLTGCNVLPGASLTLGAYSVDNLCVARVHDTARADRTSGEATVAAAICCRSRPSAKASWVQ

The values below come from patent US20190233540A1.

Results are given in words; binding and its absence hold for the method and conditions named. Some binding calls cover weakened binding; strength is not graded here.

For this assay, the target named is murine-derived PCSK9 (murine) (UniProt Q80W65). Kind of assay: ELISA, species cross-reactivity. For orientation: In an ELISA, binding on a coated surface is turned into a signal by an enzyme label.
As for B1, the binding entry is “binds”. Consider B2, for which the binding result was “binds”. B3: the binding result was “binds”.
